Results as given in PubChem BioAssay AID624291 (National Center for Advancing Translational Sciences (NCATS), 2012).
In all, about 350,000 compounds went through this assay and about 220 (0.063%) were called active. This list was built around the results that the source calls inconclusive (neither active nor inactive); the mix of calls is not that of the screen. The call rests on the fitted dose curve; in most records, active means well fitted activation curve with a large enough effect; inconclusive means small, poorly fitted or top-dose-only effect; inactive means no such curve, though single readings can be large or run the other way. A potency beside an inconclusive call is a rough fit, not a confirmed value.

Test: qHTS for Activators of Integrin-Mediated Alleviation for Muscular Dystrophy; further: nearly all actives have a fitted effect of over 60% in size;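 on activation: 100% = response of the positive control SU9516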
Settings: alpha7betagal myoblasts, beta-gal FDG fluorescence, 48 h; activation: at 38.3 µM (top of the series)
Procedure, shortened: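 Alpha7betagal+/- myoblasts (passage 13) were plated 16-24 hr, then exposed to compounds (1:260 dilution of DMSO stock) for 48 hours at 37C. After MPER lysis, β-galactosidase reporter activity was read as FDG fluorescence (ex 480/em 540) after 30 minutes.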
Potency means the concentration at half of the fitted maximal effect.

SMILES | activation | Potency
CCn1ccnc1CNCc1ccc(OCC(O)CN(C)Cc2ccccc2)cc1 (centres undefined) | inactive: -39.9% | –
CCn1cc(C(=O)O)c(=O)c2cnc(N3CCN(C(=S)NC(=O)c4ccccc4Cl)CC3)nc21 | – | inconclusive: 3.16 µM [activator, single point]
COC(=O)c1ccc(SCc2ccccc2)nc1 | – | inconclusive: 10 µM [activator, partial curve, poor fit]
O=C(CSc1nc2sccc2c(=O)[nH]1)N1CCN(c2ccccc2)CC1 | – | inconclusive: 28.2 µM [activator, single point]
COc1ccc(N2CCOCC2)c(NC(=O)c2cc3ccccc3o2)c1 | – | inconclusive: 11.2 µM [activator, single point]
NC(=O)COc1ccc(NC(=O)c2ccccc2-c2ccccc2)cc1 | – | inconclusive: 2.24 µM [activator, partial curve, poor fit]
CC1CCN(c2nc(/C=C/c3ccccc3)nc3ccccc23)CC1 | – | inconclusive: 2 µM [activator, full curve, poor fit]
O=C(Nc1ccc(-c2nc3ccccc3[nH]2)cc1)c1c(F)c(F)c(F)c(F)c1F | – | inconclusive: 28.2 µM [activator, single point]
COc1nc(C)cc(C)c1S(=O)(=O)c1ccccc1 | – | inconclusive: 5.01 µM [activator, single point]
CC(C)Oc1ccc(CNC(=S)N/N=C/c2cccnc2)cc1 | inactive: 11.5% | –
Cc1ccc(CCNc2ccccc2C)cn1 | – | inconclusive: 3.16 µM [activator, full curve, poor fit]
S=C(NCCC1=CCCCC1)Nc1ccc(Cl)cc1 | inactive: 17.3% | –
CCC1(CC)NC(=O)N(CC(=O)N2CCN(c3ccccc3F)CC2)C1=O | – | inconclusive: 2.82 µM [activator, single point]
COc1ccccc1C(=O)NC(=S)Nc1cccnc1Cl | inactive: 5.24% | –
O=S(=O)(/N=C(/Nc1cccc2ccccc12)c1ccccc1)c1ccc(F)cc1 | – | inconclusive: 2.82 µM [activator, single point]
CCOc1cc(-c2ccc(N)c(OCC)c2)ccc1N | inactive: 0.244% | –
COc1ccccc1NC(=O)CC1C(=O)Nc2ccccc2N1C(=O)c1ccccc1 (centres undefined) | – | inconclusive: 5.01 µM [activator, single point]
COc1cc(/C=C2\N=C(C)OC2=O)cc(Cl)c1OC(C)=O | – | inconclusive: 3.55 µM [activator, single point]
Cc1cccc(-c2n[nH]c([N+](=O)[O-])n2)c1 | – | inconclusive: 7.08 µM [activator, partial curve]
Cc1ccc(C(=O)NC2CC3CCC(C2)N3C)cc1 (centres undefined) | – | inconclusive: 2.82 µM [activator, single point]
Cc1cc(NC(=O)c2ccc(S(=O)(=O)N3CCc4ccccc43)cc2)no1 | – | inconclusive: 5.01 µM [activator, single point]
CC(NC(=O)c1c(F)cccc1Cl)c1ccc(-n2ccnc2)cc1 (centres undefined) | – | inconclusive: 2.51 µM [activator, full curve, poor fit]
C/C=C(\C)C(=O)N1CCC(C(=O)c2ccccc2)CC1 | – | inconclusive: 4.47 µM [activator, single point]

Part of the list above in order of count of non-hydrogen atoms, low to high.
SMILES | activation | Potency
C/C=C(\C)C(=O)N1CCC(C(=O)c2ccccc2)CC1 | – | inconclusive: 4.47 µM [activator, single point]
CC(C)Oc1ccc(CNC(=S)N/N=C/c2cccnc2)cc1 | inactive: 11.5% | –
O=C(CSc1nc2sccc2c(=O)[nH]1)N1CCN(c2ccccc2)CC1 | – | inconclusive: 28.2 µM [activator, single point]

An excerpt of these results, with each value named.
CCOc1cc(-c2ccc(N)c(OCC)c2)ccc1N
  activation: inactive: 0.244%
COc1ccccc1NC(=O)CC1C(=O)Nc2ccccc2N1C(=O)c1ccccc1 (centres undefined)
  Potency: inconclusive: 5.01 µM [activator, single point]

(continued)

SMILES | activation | Potency
Brc1cc(Br)c2nc3c(cc2c1)CCC3 | – | inconclusive: 22.4 µM [activator, single point]
O=C(CBr)c1ccc([N+](=O)[O-])c(CS(=O)(=O)c2ccc(Cl)cc2)c1 | inactive: -13.1% | –
CC(CN(C)Cc1nc(Cc2cccc(C(F)(F)F)c2)no1)CN1CCCC1 (centres undefined) | – | inconclusive: 28.2 µM [activator, single point]
Oc1ccc(CN2CCc3ccccc3C2)c2cccnc12 | inactive: -61.8% | –
O=C1CN(C(=O)COc2ccc([N+](=O)[O-])cc2Cl)c2ccccc2N1 | – | inconclusive: 3.16 µM [activator, single point]
Cc1ccc2oc(=O)c3cc(C(=O)NCCCN4CCN(C)CC4)sc3c2c1 | – | inconclusive: 1 µM [activator, partial curve, poor fit]
CCOC(=O)c1ccc(NC(=O)Nc2ncccc2C)cc1 | – | inconclusive: 14.1 µM [activator, partial curve, poor fit]
Cc1ccccc1NC(=O)N1CCCC(c2nc(-c3ccc(C(C)C)cc3)no2)C1 (centres undefined) | inactive: -46% | –
COc1ccc(CNC[C@@H](CCCCN(C)Cc2ccc(OC)cc2)N2C[C@H](c3ccccc3)N(CCc3ccc(Cl)c(Cl)c3)C(=O)C2=O)cc1 | inactive: -7.48% | –
CC1CC(C)(C)NC(=S)N1CC(=O)N(C)Cc1ccccc1 (centres undefined) | – | inconclusive: 1 µM [activator, full curve, poor fit]
Cc1ccc2c(c1)NC(=O)C(CC(=O)NCCCN1CCN(c3cc(Cl)ccc3C)CC1)O2 (centres undefined) | inactive: 11.6% | –
O=C(NNS(=O)(=O)c1ccc(F)cc1)c1cc(Cl)ccc1O | – | inconclusive: 28.2 µM [activator, single point]
O=C(/C=C/c1ccccc1[N+](=O)[O-])N1CCOCC1 | inactive: 1.99% | –
Cc1nc(CS(=O)(=O)c2ccccn2)sc1C(=O)NNC(=O)c1c(F)cccc1Cl | – | inconclusive: 20 µM [activator, single point]
FC(F)(F)c1ccc(-c2nc(=S)[nH][nH]2)cc1 | – | inconclusive: 22.4 µM [activator, single point]
CCc1nc(SCC(=O)NC2CCCC2)c2oc3ccccc3c2n1 | – | inconclusive: 5.01 µM [activator, single point]
O=C1CCCN1CCC1CCCCN1Cc1nc(-c2cnccn2)no1 (centres undefined) | – | inconclusive: 2.51 µM [activator, single point]
CC(=O)N1c2c(cc(Br)cc2S(=O)(=O)NCc2cccnc2)CC1C (centres undefined) | – | inconclusive: 2.24 µM [activator, single point]
Cc1cccc2sc(N(CCN(C)C)C(=O)C3CCN(S(=O)(=O)c4cccs4)CC3)nc12 | inactive: 23.1% | –
O=S(=O)(NC(=NC1CCCCC1)c1ccccc1F)c1ccccc1 | – | active: 10 µM
CC1=C(C)CC(C(=O)NCCCN2CCCC2=O)C(C(=O)O)C1 (centres undefined) | – | inconclusive: 10 µM [activator, single point]
O=C(COC(=O)c1ccccc1O)Nc1ccc(OC(F)F)cc1 | inconclusive: 14.8% [activator] | –
S=c1[nH]c2cc(-c3ccccc3)ccc2o1 | inconclusive: -35.4% [activator] | –

SMILES | activation | Potency
COc1ccc(C2c3[nH]c4ccccc4c3CCN2Cc2cccn2-c2ncccn2)cc1C (centres undefined) | inactive: -43.9% | –
CC1=CC(C)C2C(=O)N(O)C(=O)C2C1 (centres undefined) | inactive: 6.75% | –
CC(C)Cn1nc(NC(=O)c2ccco2)c2cc3ccccc3nc21 | – | inconclusive: 28.2 µM [activator, single point]
CCCNC(=O)N1CCN(S(=O)(=O)c2ccc3c(c2)OCCO3)CC1 | – | inconclusive: 5.01 µM [activator, single point]
O=C(Nc1ccncc1)Nc1ccc(F)cc1F | inactive: -45.8% | –
COc1ccc(C2CC(c3cccs3)=NN2C(=O)c2ccccc2)cc1OC (centres undefined) | inactive: 16.4% | –
CCOC(=O)c1cccc(NC(=O)Cn2cnc3c2c(=O)n(C)c(=O)n3C)c1 | – | inconclusive: 2 µM [activator, single point]
O=[N+]([O-])c1ccc(O)c(P(=O)(c2ccccc2)c2ccccc2)c1 | – | inconclusive: 7.08 µM [activator, full curve, poor fit]
CSc1ncccc1C(=O)Nc1cccc(S(=O)(=O)N2CCOCC2)c1 | – | inconclusive: 10 µM [activator, single point]
CC(C)N(Cc1ccccc1)C(=O)CN1C(=O)COc2ccc(S(=O)(=O)NC3CCCC3)cc21 | – | inconclusive: 1.41 µM [activator, single point]
CC1CCCN(C(=O)c2ccc3c(=O)n(C4CCCC4)c(=S)[nH]c3c2)C1 (centres undefined) | – | inconclusive: 5.01 µM [activator, single point]
Cc1ccc(NC(=O)C2CCN(S(=O)(=O)c3c(C)[nH]c(=O)[nH]c3=O)CC2)cc1 | – | inconclusive: 2.51 µM [activator, partial curve, poor fit]
CCOC(=O)c1sc(-c2ccc(C(F)(F)F)cc2)nc1O | inactive: -1.54% | –
COc1ccc(NC(=O)CN(c2ccc(OC)cc2)S(=O)(=O)c2c(C)nn(C)c2C)cc1 | – | inconclusive: 3.55 µM [activator, single point]
Cc1ccc(CNC(=O)C2CCCN(S(=O)(=O)N3CCC(C)CC3)C2)cc1 (centres undefined) | – | inconclusive: 5.01 µM [activator, single point]
Cc1sc(NC(=O)c2ccco2)c(CN2CCN(c3ccc(F)cc3)CC2)c1C | inactive: -27.2% | –
COc1ccc(C(=O)Cn2c(=N)n(C)c3ccccc32)cc1 | inactive: 9.13% | –
O=C(CNS(=O)(=O)c1c(Cl)cccc1Cl)N1CCCCCC1 | – | inconclusive: 28.2 µM [activator, single point]
CCOC(=O)N1CCN(C(=O)CCc2ccc(S(=O)(=O)NC(C)(C)C)cc2)CC1 | – | inconclusive: 5.01 µM [activator, single point]
Cc1cccc(/C(N)=N/OC(=O)c2cccnc2)c1 | – | inconclusive: 5.01 µM [activator, full curve, poor fit]
CSCCC(NC(=O)c1cccc([N+](=O)[O-])c1)C(=O)O (centres undefined) | – | inconclusive: 15.8 µM [activator, partial curve, poor fit]
N#C/C(=C\c1cccc([N+](=O)[O-])c1)C(=O)NCC1CCCO1 (centres undefined) | – | inconclusive: 5.01 µM [activator, single point]
COc1ccc(-n2nccc2-c2nn(-c3cccc(OC)c3)c(=O)n(C)c2=O)cc1 | – | inconclusive: 10 µM [activator, partial curve, poor fit]
